This is one part of the list. Most values come without repeats; read them as rough.
test system: Geomyces destructans; experiment: growth inhibition relative to DMSO control; higher = stronger growth inhibition; details: 10 µM; 15 °C; incubation time 10 days

Compound	growth inhibition [%]
CC(=O)O[C@H]1CC[C@@]2(C)[C@H](CC[C@@H]3[C@@H]2CC[C@]2(C)[C@@H]4[C@H](C[C@@H]32)O[C@]2(CC[C@@H](C)CO2)[C@H]4C)C1	-4.12
Cc1ncc([N+](=O)[O-])n1CCO	-1.71
CCN(Cc1ccncc1)C(=O)C(CO)c1ccccc1 (stereo not drawn)	15.9
CC(C)CCC[C@@H](C)[C@H]1CC[C@H]2[C@@H]3CC=C4CC(=O)CC[C@]4(C)[C@H]3CC[C@]12C	-10.3
NC[C@H]1O[C@H](O[C@H]2[C@H](O[C@@H]3O[C@H](CO)[C@@H](O)[C@H]3O)[C@@H](O)[C@H](N)C[C@@H]2N)[C@H](N)[C@@H](O)[C@@H]1O	-9.03
C=C(C)C1Cc2c(ccc(C(=O)O)c2O)O1 (stereo not drawn)	29.9
COc1ccc2[nH]cc(CCNC(C)=O)c2c1	-21.1
O=C([O-])c1ccccc1O.[Na+]	-7.83
C[C@@H]1CC[C@@]2(OC1)O[C@H]1C[C@H]3[C@@H]4CC[C@H]5C[C@@H](O)CC[C@]5(C)[C@H]4C[C@@H](O)[C@]3(C)[C@H]1[C@@H]2C	-2.2
CC(=O)OC1CCC23CC1(C)CCC2C(C)(C)CC3OC(C)=O (stereo not drawn)	-10.8
COC(=O)C[C@H]1C(C)(C)C(OC(C)=O)[C@]2(O)C=C3C4CC(=O)O[C@@H](c5ccoc5)[C@]4(C)CCC3[C@@]1(C)C2=O (stereo partly drawn)	-3.8
Oc1nc2cc(Cl)c(Cl)cc2nc1O	-33.9
CC(=O)O[C@H]1CC[C@]2(C)C3=CC(=O)[C@@]4(C)C(C[C@@H]5OC6(OCC(C)CC6Br)[C@@H](C)[C@@H]54)C3CC[C@H]2C1 (stereo partly drawn) [3beta-ACETOXY-23-BROMO-ISOALLOSPIROST-9 (11)-ENE-12-ONE]	-1.75
CCCC(=O)Nc1ncnc2c1ncn2[C@@H]1O[C@@H]2COP(=O)(O)O[C@H]2[C@H]1OC(=O)CCC	-1.11
CN(C)CCC[C@@]1(c2ccc(F)cc2)OCc2cc(C#N)ccc21	-9.74
COc1c(C2COc3cc4c(cc3C2=O)CC(O)C(C)(C)O4)ccc2c1CCC(C)(C)O2 (stereo not drawn)	3.86
NC(=O)N/N=C/c1ccc([N+](=O)[O-])o1	-17.8
N=C(N)NCCC[C@@H](NC(=O)[C@@H](N)Cc1ccc(O)cc1)C(=O)O	-6.38
O=C(NCO)c1cccnc1	-0.163
CO[C@@H]1[C@@H](OC(N)=O)[C@@H](O)[C@H](Oc2ccc3c(O)c(NC(=O)c4ccc(O)c(CC=C(C)C)c4)c(=O)oc3c2C)OC1(C)C	-8.72

Compound	growth inhibition [%]
C=CCCCCCCCCCCCC(O)CC(O)CO (stereo not drawn)	-11.3
C/C1=C\CCC(=O)C2CC(C)(C)C2CC1 (stereo not drawn)	-6.87
CCN1CCN(C(=O)N[C@@H](C(=O)N[C@@H]2C(=O)N3[C@@H]2SC(C)(C)[C@@H]3C(=O)O)c2ccccc2)C(=O)C1=O	-1.55
CC(=O)Oc1cccc(O)c1	-7.83
COc1cc(/C=C/C(=O)O)cc(OC)c1OC	-15.6
OC[C@H]1O[C@@H](Oc2ccc(O)cc2)[C@H](O)[C@@H](O)[C@@H]1O	-8.34
Nc1ccc(S(=O)(=O)c2ccc(N)cc2)cc1	-4.19
OCCN1CCN(CCCN2c3ccccc3Sc3ccc(Cl)cc32)CC1	-8.69
CCC[C@H](N[C@@H](C)C(=O)N1[C@H](C(=O)O)C[C@@H]2CCCC[C@@H]21)C(=O)OCC	-12.2
Cn1nnnc1SCC1=C(C(=O)O)N2C(=O)[C@@H](NC(=O)[C@H](O)c3ccccc3)[C@H]2SC1	-7.91
Nc1ccc(C(=O)NCC(=O)O)cc1	-3
COc1ccc(NS(=O)(=O)c2ccc(N)cc2)nn1	-4.14
CC1(C)OC(=O)NC1=O	-7.18
CC(=O)Oc1cccc2c1C(=O)c1c(OC(C)=O)cc(C(=O)O)cc1C2=O	-5.2
NC(C(=O)O)C(O)C(=O)O (stereo not drawn) [d,l-threo-3-HYDROXYASPARTIC ACID]	-4.87
COC(=O)C1=CO[C@@H](O[C@@H]2O[C@H](CO)[C@@H](O)[C@H](O)[C@H]2O)[C@@H]2[C@@H](C)[C@@H](O)C[C@H]12	12.8
N[C@H]1C(O)O[C@H](CO)[C@@H](O)[C@@H]1O (stereo partly drawn)	31.1
CC(=O)OCC(=O)[C@@]1(O)CCC2C3CC[C@@H]4C[C@H](OC(C)=O)CC[C@]4(C)C3C(=O)C[C@@]21C (stereo partly drawn)	-1.72
C[C@@H]1O[C@@H](O[C@H]2[C@H](Oc3cc(O)c4c(=O)cc(-c5ccc(O)cc5)oc4c3)O[C@H](CO)[C@@H](O)[C@@H]2O)[C@H](O)[C@H](O)[C@H]1O	9.18
CCc1cn([C@H]2C[C@H](O)[C@@H](CO)O2)c(=O)[nH]c1=O	-2.21

Compound	growth inhibition [%]
CC(=O)[C@H]1CC[C@H]2[C@@H]3CC(=O)C4=CC(=O)CC[C@]4(C)[C@H]3CC[C@]12C	-25.1
CC(NCCC(c1ccccc1)c1ccccc1)c1ccccc1 (stereo not drawn)	0.8
NCCCCC(N)C(=O)NC(Cc1c[nH]c2ccccc12)C(=O)NC(CCCCN)C(=O)O (stereo not drawn)	-3.8
Cc1c(N(C)CS(=O)(=O)O)c(=O)n(-c2ccccc2)n1C	-13.2
NNc1nncc2ccccc12	3.29
CC(=O)OCC(CCn1cnc2cnc(N)nc21)COC(C)=O	-33.9
NCC(O)CC(=O)O (stereo not drawn)	-2.21
C[C@H](CCC(=O)O)[C@H]1CC[C@H]2[C@@H]3[C@H](O)C[C@@H]4C[C@H](O)CC[C@]4(C)[C@H]3CC[C@]12C	-8.24
Cn1c(=O)[nH]c2[nH]cnc2c1=O	-3.64
COc1ccc(-c2coc3c(OC)c(OC)ccc3c2=O)cc1	-6.9
COc1c2occc2c(OC)c2c(=O)cc(C)oc12	5.43
C1CNCCN1	-6.78
O=c1oc2ccccc2c(O)c1Cc1c(O)c2ccccc2oc1=O	-6.87
COC(=O)/C=C/C(C)=C\C=C\C(C)=C\C=C\C=C(C)\C=C\C=C(C)\C=C\C(=O)O	-8.61
CC(=O)O[C@H]1CC[C@@]2(C)[C@@H](CC[C@@H]3[C@@H]2CC(=O)[C@]2(C)[C@@H]4[C@H](C[C@@H]32)O[C@]2(CC[C@@H](C)CO2)[C@H]4C)C1	-8.7
O=C1c2ccccc2C(=O)c2c1ccc(O)c2O	9.83
CC(=O)Oc1cc(OC(C)=O)c2c(c1)O[C@H](c1ccc(OC(C)=O)c(OC(C)=O)c1)[C@H](OC(C)=O)C2	-7.21
CN1CCN(CCCN2c3ccccc3Sc3ccc(Cl)cc32)CC1	-11.2

2 records picked at random from the list so far, as already listed:
Compound	growth inhibition [%]
C1CNCCN1	-6.78
C[C@H](CCC(=O)O)[C@H]1CC[C@H]2[C@@H]3[C@H](O)C[C@@H]4C[C@H](O)CC[C@]4(C)[C@H]3CC[C@]12C	-8.24
